# The name of at least one read-out is uncertain.
# Test: Viscosity recovery after application of high shear stress
# Assay type: physicochemical
# Conditions: after 1000 of shear rate for 1 min
Substance,viscosity recovery behaviour (1.5% solution),viscosity recovery behaviour (2.5% solution)
Ile-Glu-Ile-Lys-Ile-Glu-Ile-Lys-Ile-Glu-Ile-Lys-Ile [IEIK13],typical thixotropic behavior,–
Arg-Ala-Asp-Ala-Arg-Ala-Asp-Ala-Arg-Ala-Asp-Ala-Arg-Ala-Asp-Ala [RADA16],–,typical thixotropic behavior
